This note sets out measurements from article PMC11955550.

No constants are given. Whether binding was seen depends on the method and setting. Some entries that bind do so weakly or less than the wild type.

The target in one experiment is wild-type DNAJB1 (human) (UniProt P25685). The experiment in a line: cryo-EM structure; single-particle helical reconstruction of αSyn fibrils decorated with WT DNAJB1 or ΔJ-DNAJB1 in HD buffer; mask on the decoration of one protofilament; low resolution (~14 Å, ~22 Å); both purified.
In experiment [1] the target is ΔJ-DNAJB1 (truncated DNAJB1 lacking the J-domain and G/F linker) (human) (UniProt P25685). Described as above.

As to “wild-type DNAJB1 (from UniProt P25685 1-340) (other; other documents disagree on this pair)”, the binding result with wild-type DNAJB1 (human) is listed as “binds”.
With “ΔJ-DNAJB1 (truncated DNAJB1 lacking the J-domain and G/F linker) (from UniProt P25685 161-340) (domain or fragment)”, the binding result in experiment [1] was “binds”.
